Measured values published in patent US12391683B2, “Therapeutic compounds and methods” (Actio Biosciences, Inc., priority 2022, dated 2025).

Sequences of proteins named here, by UniProt entry; tags and fusion partners are left off.
UniProt Q9HBA0, whole entry: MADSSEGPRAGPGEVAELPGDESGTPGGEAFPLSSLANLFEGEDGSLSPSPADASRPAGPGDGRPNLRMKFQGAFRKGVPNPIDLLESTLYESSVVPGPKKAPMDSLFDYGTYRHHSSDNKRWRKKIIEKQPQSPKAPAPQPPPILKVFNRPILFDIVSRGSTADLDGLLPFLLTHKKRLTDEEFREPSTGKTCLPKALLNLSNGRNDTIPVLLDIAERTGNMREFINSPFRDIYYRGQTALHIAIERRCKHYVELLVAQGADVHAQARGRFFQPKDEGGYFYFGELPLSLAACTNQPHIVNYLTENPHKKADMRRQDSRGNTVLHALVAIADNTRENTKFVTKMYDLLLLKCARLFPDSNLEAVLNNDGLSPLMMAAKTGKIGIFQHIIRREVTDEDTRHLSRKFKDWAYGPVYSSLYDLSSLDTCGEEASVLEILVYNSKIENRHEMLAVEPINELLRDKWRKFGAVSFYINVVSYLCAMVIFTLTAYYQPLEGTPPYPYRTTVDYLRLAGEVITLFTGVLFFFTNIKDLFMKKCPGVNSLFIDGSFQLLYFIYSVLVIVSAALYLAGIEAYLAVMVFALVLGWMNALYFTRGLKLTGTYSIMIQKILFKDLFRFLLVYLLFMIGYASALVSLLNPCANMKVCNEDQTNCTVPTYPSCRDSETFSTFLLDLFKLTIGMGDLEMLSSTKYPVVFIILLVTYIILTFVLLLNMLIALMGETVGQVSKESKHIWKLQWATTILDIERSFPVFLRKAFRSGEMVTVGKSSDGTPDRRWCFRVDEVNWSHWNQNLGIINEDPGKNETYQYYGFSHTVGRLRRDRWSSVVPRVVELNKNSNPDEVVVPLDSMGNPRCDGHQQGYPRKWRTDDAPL
UniProt P08684, whole entry: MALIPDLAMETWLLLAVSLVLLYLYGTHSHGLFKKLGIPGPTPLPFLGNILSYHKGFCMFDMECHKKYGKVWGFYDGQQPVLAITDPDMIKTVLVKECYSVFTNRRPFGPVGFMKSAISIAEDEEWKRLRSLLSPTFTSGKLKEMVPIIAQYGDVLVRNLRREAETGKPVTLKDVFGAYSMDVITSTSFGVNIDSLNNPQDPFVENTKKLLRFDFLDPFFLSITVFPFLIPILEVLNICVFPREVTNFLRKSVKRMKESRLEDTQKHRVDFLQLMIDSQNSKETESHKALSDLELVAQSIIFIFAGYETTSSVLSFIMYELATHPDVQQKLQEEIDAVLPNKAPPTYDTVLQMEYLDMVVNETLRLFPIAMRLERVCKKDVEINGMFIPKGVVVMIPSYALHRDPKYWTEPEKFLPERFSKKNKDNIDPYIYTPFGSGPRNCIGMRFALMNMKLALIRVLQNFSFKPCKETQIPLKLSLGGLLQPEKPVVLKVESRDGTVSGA

How the values were obtained:
Human TRPV4 = Human TRPV4 (Homo sapiens, UniProt Q9HBA0); test: TRPV4 calcium flux assay (FLIPR, antagonist mode); conditions: read-out: Human TRPV4 Ca2+ Assay IC50; HEK293T cells transfected with hTRPV4; antagonist mode vs EC80 of TRPV4 agonist; average of at least 3 separate experiments
Hepatocytes [1] = test: Hepatocytes predicted clearance, dog; assay type: in vitro ADME
Hepatocytes [2] = test: Hepatocytes predicted clearance, mouse; assay type: in vitro ADME
Hepatocytes [3] = test: Hepatocytes predicted clearance, rat; assay type: in vitro ADME
Hepatocytes [4] = test: Hepatocytes predicted clearance, cyno; assay type: in vitro ADME
[5] = target: recombinant human CYP3A4 enzyme (Homo sapiens, UniProt P08684); test: CYP3A4 incubation assay; assay type: in vitro ADME; conditions: 100 pmol/mL recombinant human CYP3A4, 37° C., 0-25 min
Experimental: Example 24. CYP3A4 Incubation Assay
Compounds (final concentration […]) were incubated in 100 mM phosphate buffer containing 100 pmol/mL recombinant human CYP3A4 enzyme for 0, 5, 10, 15 and 25 minutes.
Testosterone was used as positive control. Reaction was initiated by the addition of NADPH (final concentration […]) and carried out at 37° C. The reaction was stopped by the addition of 4 volumes of cold acetonitrile (with 100 nM alprazolam, 200 nM labetalol, 200 nM imipramine and 2 μM ketoprofen as internal standards). Samples were centrifuged at 3,220 g for 40 minutes to precipitate protein. 70 μL supernatant was transferred to the analysis plate containing 110 μL of acetonitrile for LC-MS/MS analysis.
The following table indicates the percentage remaining for the indicated examples after incubation with recombinant Human CYP3A4 after 25 minutes under the same conditions as described for Example […].

Hepatocytes [6] = test: Hepatocytes predicted clearance, human

Structure (SMILES)	IC50 (Human TRPV4) [µM]	Hepatocytes predicted clearance in dog (Hepatocytes [1]) [mL/min/kg]	Hepatocytes predicted clearance in mouse (Hepatocytes [2]) [mL/min/kg]	Hepatocytes predicted clearance in rat (Hepatocytes [3]) [mL/min/kg]	Hepatocytes predicted clearance in cyno (Hepatocytes [4]) [mL/min/kg]	CYP3A4 Clint [5]	Hepatocytes predicted clearance in human (Hepatocytes [6]) [mL/min/kg]
CC(C)(C)c1cnc(N2C[C@@]3(CCC(F)(F)[C@H](Cn4cnc5ccc(C#N)cc54)C3)OC2=O)cn1	0.162						
CC1(Cn2cnc3ccc(C#N)cc32)CC2(CCC1=O)CN(c1cnc(C(C)(C)O)cn1)C(=O)O2 (single isomer, unassigned)	6.4	41	107	1.2	22.2	0.14, 0.14 μL/min/pmol CYP450	1.2

The structures given here were assigned with low confidence; some may be wrong.
